Experimental data taken from patent US20250353864A1, “INDAZOLE CONTAINING MACROCYCLES AND THEIR USE” (BLOSSOMHILL THERAPEUTICS, INC., priority 2022, published 2025).
The match of structure and compound is tentative.

Protein sequences, listed by entry. Tags and fused reporters are not part of them. Lines headed by an entry give the natural chain unless they say otherwise; changes in a name come on top. Chains listed by the source or under a name are the forms on record and can include a tag or linker. Residues count along the entry.
UniProt P00533, 25-1210 limits assumed: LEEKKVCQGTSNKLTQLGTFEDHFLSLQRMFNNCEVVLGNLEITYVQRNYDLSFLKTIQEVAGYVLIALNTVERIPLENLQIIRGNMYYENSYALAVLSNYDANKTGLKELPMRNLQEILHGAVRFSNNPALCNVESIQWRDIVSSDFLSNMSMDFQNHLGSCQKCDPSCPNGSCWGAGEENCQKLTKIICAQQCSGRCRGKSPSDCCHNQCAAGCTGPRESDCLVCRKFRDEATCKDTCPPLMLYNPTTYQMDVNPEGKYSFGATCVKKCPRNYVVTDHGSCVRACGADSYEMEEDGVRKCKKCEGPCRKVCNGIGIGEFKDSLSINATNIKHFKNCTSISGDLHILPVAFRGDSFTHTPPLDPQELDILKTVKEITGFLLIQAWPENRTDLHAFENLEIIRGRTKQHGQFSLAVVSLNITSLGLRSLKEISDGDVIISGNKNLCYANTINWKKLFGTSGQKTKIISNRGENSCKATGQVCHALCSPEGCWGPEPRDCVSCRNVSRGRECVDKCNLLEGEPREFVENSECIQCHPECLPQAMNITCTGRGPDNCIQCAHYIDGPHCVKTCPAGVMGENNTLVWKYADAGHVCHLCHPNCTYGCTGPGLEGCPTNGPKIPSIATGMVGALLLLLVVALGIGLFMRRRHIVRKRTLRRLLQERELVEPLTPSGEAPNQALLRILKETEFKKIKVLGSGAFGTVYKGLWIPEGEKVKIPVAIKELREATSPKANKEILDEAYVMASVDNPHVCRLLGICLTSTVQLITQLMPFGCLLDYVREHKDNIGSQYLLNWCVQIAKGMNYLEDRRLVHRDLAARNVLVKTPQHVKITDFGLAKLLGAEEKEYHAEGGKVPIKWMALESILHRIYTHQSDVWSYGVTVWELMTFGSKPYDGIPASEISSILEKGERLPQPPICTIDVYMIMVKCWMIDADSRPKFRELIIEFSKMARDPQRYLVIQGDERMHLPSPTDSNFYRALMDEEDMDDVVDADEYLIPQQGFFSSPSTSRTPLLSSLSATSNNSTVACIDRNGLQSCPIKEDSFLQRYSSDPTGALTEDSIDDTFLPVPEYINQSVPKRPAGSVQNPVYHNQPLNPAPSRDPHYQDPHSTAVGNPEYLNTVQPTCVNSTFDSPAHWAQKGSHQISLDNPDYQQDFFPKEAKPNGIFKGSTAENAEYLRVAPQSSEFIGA
UniProt P00533, 25-1210 L858R limits assumed: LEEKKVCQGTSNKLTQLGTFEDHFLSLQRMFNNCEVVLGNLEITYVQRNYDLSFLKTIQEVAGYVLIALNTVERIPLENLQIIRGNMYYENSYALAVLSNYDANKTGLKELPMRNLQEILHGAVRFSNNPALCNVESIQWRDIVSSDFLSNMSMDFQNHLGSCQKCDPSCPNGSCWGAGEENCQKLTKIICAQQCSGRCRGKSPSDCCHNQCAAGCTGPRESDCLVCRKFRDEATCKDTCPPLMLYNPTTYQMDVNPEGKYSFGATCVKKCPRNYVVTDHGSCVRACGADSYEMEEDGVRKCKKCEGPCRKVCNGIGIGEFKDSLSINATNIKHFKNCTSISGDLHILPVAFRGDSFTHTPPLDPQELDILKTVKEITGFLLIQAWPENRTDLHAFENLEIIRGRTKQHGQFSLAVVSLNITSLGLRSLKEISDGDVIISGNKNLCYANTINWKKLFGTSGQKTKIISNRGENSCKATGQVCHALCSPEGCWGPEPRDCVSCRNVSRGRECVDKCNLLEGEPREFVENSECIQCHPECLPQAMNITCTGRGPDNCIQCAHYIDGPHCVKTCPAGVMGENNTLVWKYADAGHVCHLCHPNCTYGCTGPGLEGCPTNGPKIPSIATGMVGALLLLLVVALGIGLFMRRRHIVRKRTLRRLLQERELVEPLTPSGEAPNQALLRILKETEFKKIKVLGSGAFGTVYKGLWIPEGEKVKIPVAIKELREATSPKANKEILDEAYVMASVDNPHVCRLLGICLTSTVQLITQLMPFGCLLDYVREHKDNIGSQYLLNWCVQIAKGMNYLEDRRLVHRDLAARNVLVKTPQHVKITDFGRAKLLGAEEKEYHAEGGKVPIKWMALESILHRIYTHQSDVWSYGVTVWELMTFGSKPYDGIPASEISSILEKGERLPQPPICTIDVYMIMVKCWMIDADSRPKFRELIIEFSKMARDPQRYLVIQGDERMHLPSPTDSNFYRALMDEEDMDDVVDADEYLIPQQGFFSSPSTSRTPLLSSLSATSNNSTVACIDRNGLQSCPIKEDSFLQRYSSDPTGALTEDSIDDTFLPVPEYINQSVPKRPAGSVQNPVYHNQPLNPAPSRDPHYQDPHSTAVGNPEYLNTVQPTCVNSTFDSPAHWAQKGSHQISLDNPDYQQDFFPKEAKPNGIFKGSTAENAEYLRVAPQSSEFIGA
UniProt P00533, 25-1210 T790M/C797S/L858R limits assumed: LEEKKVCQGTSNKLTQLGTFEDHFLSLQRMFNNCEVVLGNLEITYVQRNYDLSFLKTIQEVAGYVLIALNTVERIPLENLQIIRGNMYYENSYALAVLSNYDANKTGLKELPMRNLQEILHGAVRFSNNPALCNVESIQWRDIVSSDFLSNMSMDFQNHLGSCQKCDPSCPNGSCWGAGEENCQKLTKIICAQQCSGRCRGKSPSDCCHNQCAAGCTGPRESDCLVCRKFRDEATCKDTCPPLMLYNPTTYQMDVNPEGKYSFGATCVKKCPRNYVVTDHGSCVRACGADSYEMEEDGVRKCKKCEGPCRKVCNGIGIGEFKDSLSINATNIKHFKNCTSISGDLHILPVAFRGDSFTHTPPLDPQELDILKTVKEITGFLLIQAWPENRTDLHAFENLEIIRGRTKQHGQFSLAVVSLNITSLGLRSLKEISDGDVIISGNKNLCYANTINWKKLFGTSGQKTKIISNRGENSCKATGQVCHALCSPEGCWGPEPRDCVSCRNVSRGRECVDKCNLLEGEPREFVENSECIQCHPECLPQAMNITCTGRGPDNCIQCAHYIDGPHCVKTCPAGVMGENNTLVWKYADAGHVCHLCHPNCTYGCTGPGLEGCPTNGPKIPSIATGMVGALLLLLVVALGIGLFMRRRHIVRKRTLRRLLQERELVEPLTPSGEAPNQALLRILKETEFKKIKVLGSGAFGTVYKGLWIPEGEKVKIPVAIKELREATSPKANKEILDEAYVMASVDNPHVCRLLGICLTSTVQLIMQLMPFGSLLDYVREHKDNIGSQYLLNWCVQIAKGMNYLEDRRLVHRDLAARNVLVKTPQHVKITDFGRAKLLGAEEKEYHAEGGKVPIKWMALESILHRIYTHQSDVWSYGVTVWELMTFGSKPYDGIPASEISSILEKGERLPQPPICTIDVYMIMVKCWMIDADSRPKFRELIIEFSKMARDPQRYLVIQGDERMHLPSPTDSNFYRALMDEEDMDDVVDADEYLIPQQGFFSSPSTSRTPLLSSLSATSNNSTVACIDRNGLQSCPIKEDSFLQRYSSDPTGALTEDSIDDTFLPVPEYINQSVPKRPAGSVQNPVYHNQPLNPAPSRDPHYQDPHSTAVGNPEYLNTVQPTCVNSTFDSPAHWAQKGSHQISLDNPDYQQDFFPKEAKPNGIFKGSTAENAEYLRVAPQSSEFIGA
UniProt P00533, with tags, fused parts or gaps INS770NPG limits assumed: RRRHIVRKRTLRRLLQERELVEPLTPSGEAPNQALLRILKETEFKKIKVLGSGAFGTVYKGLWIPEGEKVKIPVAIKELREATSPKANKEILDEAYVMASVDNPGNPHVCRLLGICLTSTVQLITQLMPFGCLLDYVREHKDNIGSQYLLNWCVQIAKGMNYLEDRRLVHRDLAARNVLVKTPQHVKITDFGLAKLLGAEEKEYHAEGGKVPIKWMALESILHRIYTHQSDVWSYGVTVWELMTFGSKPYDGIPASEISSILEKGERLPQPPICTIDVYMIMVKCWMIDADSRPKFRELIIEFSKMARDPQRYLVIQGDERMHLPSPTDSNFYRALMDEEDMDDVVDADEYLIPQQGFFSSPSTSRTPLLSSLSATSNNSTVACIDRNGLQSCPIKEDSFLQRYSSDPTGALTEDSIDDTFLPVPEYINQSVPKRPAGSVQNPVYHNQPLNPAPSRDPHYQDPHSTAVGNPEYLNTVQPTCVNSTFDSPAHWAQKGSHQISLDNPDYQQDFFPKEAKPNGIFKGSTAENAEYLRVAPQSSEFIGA
UniProt P00533, with tags, fused parts or gaps DEL746-750 limits assumed: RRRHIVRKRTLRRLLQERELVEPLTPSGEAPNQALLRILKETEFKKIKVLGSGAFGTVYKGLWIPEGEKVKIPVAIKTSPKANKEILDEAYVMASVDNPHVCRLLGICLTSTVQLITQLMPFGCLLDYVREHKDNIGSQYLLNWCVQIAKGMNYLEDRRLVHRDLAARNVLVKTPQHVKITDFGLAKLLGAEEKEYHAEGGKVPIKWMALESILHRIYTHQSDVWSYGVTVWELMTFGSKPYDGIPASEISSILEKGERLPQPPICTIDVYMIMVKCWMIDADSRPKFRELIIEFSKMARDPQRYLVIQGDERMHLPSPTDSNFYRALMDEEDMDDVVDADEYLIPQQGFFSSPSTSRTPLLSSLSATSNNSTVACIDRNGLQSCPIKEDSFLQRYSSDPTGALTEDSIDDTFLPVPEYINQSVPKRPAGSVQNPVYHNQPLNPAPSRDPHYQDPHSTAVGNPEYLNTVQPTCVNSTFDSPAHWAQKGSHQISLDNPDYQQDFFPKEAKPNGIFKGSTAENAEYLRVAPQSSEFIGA

Experiments:
EGFR WT = EGFR WT (Homo sapiens (Human), UniProt P00533); assay: HotSpot radiometric kinase assay (Reaction Biology), EGFR WT; conditions: read-out: EGFR wt IC50, 10 μM ATP
Protocol: (§1) Biochemical Assays for Inhibition of Wild-Type and Mutant EGFRs
(§2) Briefly, specific kinase/substrate pairs along with required cofactors were prepared in reaction buffer; 20 mM Hepes pH 7.5, 10 mM […], 1 mM EGTA, 0.02% Brij35, 0.02 mg/ml BSA, 0.1 mM Na3VO4, 2 mM DTT, 1% DMSO. Compounds were delivered into the reaction, followed […] later by addition of a mixture of ATP (Sigma, St. Louis MO) and ^33P ATP (Perkin Elmer, Waltham MA) to a final concentration of 10 μM. Reactions were carried out at room temperature for 120 min, followed by spotting of the reactions onto P81 ion exchange filter paper (Whatman Inc., Piscataway, NJ). Unbound phosphate was removed by extensive washing of filters in 0.75% phosphoric acid. […] IC50 values and curve fits were obtained using Prism (GraphPad Software).

EGFR (D770_N771insNPG) = EGFR (D770_N771insNPG) (Homo sapiens (Human), UniProt P00533, INS770NPG); assay: HotSpot radiometric kinase assay, EGFR (D770_N771insNPG); conditions: read-out: EGFR (Δ770_N771insNPG) IC50, 10 μM ATP
Protocol: as §1, §2

EGFR Δ746-750 mutant = EGFR Δ746-750 mutant (Homo sapiens (Human), UniProt P00533, DEL746-750); assay: HotSpot radiometric kinase assay, EGFR Δ746-750 mutant; conditions: read-out: EGFR (Δ746-750) IC50, 10 μM ATP
Protocol: as §1, §2

EGFR L858R mutant = EGFR L858R mutant (Homo sapiens (Human), UniProt P00533, L858R); assay: HotSpot radiometric kinase assay, EGFR L858R mutant; conditions: read-out: EGFR (L858R) IC50, 10 μM ATP
Protocol: as §1, §2

[1] = target: EGFR L858R/T790M/C797S mutant (Homo sapiens (Human), UniProt P00533, C797S/L858R/T790M); assay: HotSpot radiometric kinase assay, EGFR L858R/T790M/C797S mutant; conditions: read-out: EGFR (L858R/T790M/C797S) IC50, 10 μM ATP
Protocol: as §1, §2

Measured: IC50

CC(C)NC(=O)c1cnc2c(c1)/C=C/c1n[nH]c3ccc(cc13)-c1cnn(C)c1COCCO2
> 1000 nM: all assays above
